Experimental data from PubChem BioAssay AID248 (DTP/NCI, 2004).
The list shows only some results of the screen, not a fair sample: it is rich in T/C values a quarter to a half above the control, in often repeated tests (any T/C) and in doses without a T/C. Other doses and runs of a compound stand elsewhere. T/C is the treated group as % of the vehicle group. Some doses have a count of surviving animals in place of a T/C: the source holds a T/C of zero for them, seemingly a mark for toxic or unscored doses. Some survivor counts are full or nearly so, which does not show that the dose was tolerated: the source hardly ever lists a survival T/C far under the control, and the zero likely stands for such cases as well. Survivors were counted at the toxicity check, usually on the fifth day, unless a day is given; later deaths do not show. Schedule codes are those of the source, read here as Q, the interval in days (D) or hours (H), X, the number of doses.

Test system: L1210 leukemia ip in BDF1 mice, survival T/C
Assay: NCI In Vivo Anticancer Drug Screen. Data for tumor model L1210 Leukemia (intraperitoneal) in B6D2F1 (BDF1) mice
Details: T/C endpoint: mean survival time, higher T/C = longer survival
[1] = dose: 150.0 mg/kg/injection, schedule: Q01DX001 (ip), vehicle: saline

NC(CSS(=O)(=O)O)=NCC12CC3CC(CC(C3)C1)C2
survivor count (dose: 50.0 mg/kg/injection, schedule: Q04DX002 (ip), vehicle: Klucel (hydroxypropylcellulose) (HPC)): 0 of 3 | survivor count (dose: 100.0 mg/kg/injection, schedule: Q04DX002 (ip), vehicle: Klucel (hydroxypropylcellulose) (HPC)): 2 of 3 | survivor count (dose: 200.0 mg/kg/injection, schedule: Q04DX002 (ip), vehicle: Klucel (hydroxypropylcellulose) (HPC)): 3 of 3 | survivor count (dose: 400.0 mg/kg/injection, schedule: Q04DX002 (ip), vehicle: Klucel (hydroxypropylcellulose) (HPC)): 0 of 3

CC[N+](C)(C)CCC#N
survivor count (dose: 75.0 mg/kg/injection, schedule: Q01DX001 (ip), vehicle: saline): 2 of 6 | survivor count [1]: 0 of 6 | survivor count (dose: 300.0 mg/kg/injection, schedule: Q01DX001 (ip), vehicle: saline): 0 of 6

Cc1ccc(S(=O)(O)=S)cc1.[Fe]
survivor count [1]: 6 of 6

CCC12CCCN=C1c1c([nH]c3ccccc13)CC2 (stereo not drawn)
survivor count (dose: 100.0 mg/kg/injection, schedule: Q04DX002 (ip), vehicle: saline with Tween-80): 0 of 3 | survivor count (dose: 200.0 mg/kg/injection, schedule: Q04DX002 (ip), vehicle: saline with Tween-80): 0 of 3 | survivor count (dose: 400.0 mg/kg/injection, schedule: Q04DX002 (ip), vehicle: saline with Tween-80): 0 of 3

ClC1=NC(Cl)C(Cl)=N/C1=N\c1ncn[nH]1 (stereo not drawn)
survivor count (dose: 62.5 mg/kg/injection, schedule: Q01DX009 (ip), vehicle: saline with Tween-80): 2 of 6 | survivor count (dose: 125.0 mg/kg/injection, schedule: Q01DX009 (ip), vehicle: saline with Tween-80): 0 of 6
